Source: patent US20150086511A1, “SURVIVAL, DIFFERENTIATION AND STRUCTURAL INTEGRATION OF HUMAN NEURAL STEM CELLS GRAFTED INTO THE ADULT RAT SPINAL CORD” (NEURALSTEM, INC., priority 2005, published 2015)
For at least one compound, name, drawing or mass did not settle the structure.

Experiments:
[1] = test system: SOD1 G93A rats; assay: Survival and differentiation of human NSCs in spinal cord of SOD1 G93A rats; format: in vivo, rat; conditions: rats grafted with human NSCs
[2] = test system: SOD1-G93A mice; conditions: [112], [113]; cited from earlier work
[3] = test system: SOD1-G93A mice grafted with human NSCs; assay: Graft rejection and human NSC graft survival under immunosuppressive regimens in SOD1-G93A mice (ICC for HNu, CD4, CD8, DX5, Iba-1)
[4] = test system: graft rejection; conditions: [102]; cited from earlier work

C=CC[C@@H]1/C=C(\C)C[C@H](C)C[C@H](OC)[C@H]2O[C@@](O)(C(=O)C(=O)N3CCCC[C@H]3C(=O)O[C@H](/C(C)=C/[C@@H]3CC[C@@H](O)[C@H](OC)C3)[C@H](C)[C@@H](O)CC1=O)[C@H](C)C[C@@H]2OC [FK506]
prevention of immune rejection of human NSC grafts in rats [1]: good results
prevention of immune rejection of human NSC grafts in rats ([1]; listed as FK-506): effectively prevented
efficacy in SOD1-G93A mice (literature) [2]: made no difference
NK cell (DX5) response [3]: moderately intense NK cell response
microglial (Iba-1) response at the graft site ([3]; 1 week post-grafting): numerous
potency in preventing graft rejection relative to cyclosporine A [4]: 10-100 times
